Laboratory results from publication PMC3213697.
Results are given in words; binding and its absence hold for the method and conditions named.

Protein sequences, listed by entry. Tags and fused reporters are not part of them. Lines headed by an entry give the natural chain unless they say otherwise; changes in a name come on top. Chains listed by the source or under a name are the forms on record and can include a tag or linker.
C313Y myostatin growth factor (O14793, form named): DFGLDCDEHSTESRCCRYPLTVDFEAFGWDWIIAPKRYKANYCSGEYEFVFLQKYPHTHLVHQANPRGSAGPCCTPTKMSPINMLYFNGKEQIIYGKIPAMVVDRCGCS

Target: C313Y myostatin growth factor (UniProt O14793)
Assay: reducing versus non-reducing SDS-PAGE (disulphide-linked dimer); furin cleavage products of the purified precursor proteins, 15% SDS-PAGE, reducing versus non-reducing; both purified

With “C313Y myostatin growth factor (from UniProt O14793 267-375) (ligand)” as the substance, how does the binding read?
Its binding is “no binding”.
